Experimental data reported in publication doi:10.1101/2020.05.06.071340.

Protein sequences, listed by entry. Tags and fused reporters are not part of them. Residues count along the entry.
UniProt Q9LKL2, 533-575 K551A/K552A/K559A: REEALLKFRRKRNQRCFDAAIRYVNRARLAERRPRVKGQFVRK
UniProt Q9LKL2, 533-575 R558A: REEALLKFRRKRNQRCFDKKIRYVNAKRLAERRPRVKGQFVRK
UniProt Q9LKL2, 533-575 K559A: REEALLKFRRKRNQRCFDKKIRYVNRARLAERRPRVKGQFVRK
UniProt Q9LKL2, 533-575 R564A: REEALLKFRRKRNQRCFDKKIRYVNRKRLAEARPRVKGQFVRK
UniProt Q9LKL2, 533-575 R560A: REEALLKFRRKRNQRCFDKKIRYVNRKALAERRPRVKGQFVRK
UniProt Q9LKL2, 533-575 K551A: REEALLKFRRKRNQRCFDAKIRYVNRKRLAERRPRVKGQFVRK
UniProt Q9LKL2, 533-575 R565A: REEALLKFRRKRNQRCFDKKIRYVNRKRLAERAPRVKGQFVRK
UniProt Q9LKL2, 533-575 A562D: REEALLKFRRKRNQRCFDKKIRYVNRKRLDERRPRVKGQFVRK
UniProt Q9LKL2, 567-590: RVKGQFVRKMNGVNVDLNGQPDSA
UniProt Q39057, 306-348: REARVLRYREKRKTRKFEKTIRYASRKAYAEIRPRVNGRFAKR

Tests used:
[1] = molecular target: T1, PRR5-CCT (Arabidopsis) (UniProt Q6LA42); test: EMSA; settings: residues 509-551
T1 sequence (looked up): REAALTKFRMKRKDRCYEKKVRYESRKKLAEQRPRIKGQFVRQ

[2] = molecular target: T2, TOC1-CCT K552A (Arabidopsis) (UniProt Q9LKL2); test: EMSA; settings: mildly impaired; residues 533-575
T2 sequence (looked up): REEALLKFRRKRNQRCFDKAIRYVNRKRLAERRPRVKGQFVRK

[3] = molecular target: T3, TOC1-CCT-5c K551A,K552A,K559A (Arabidopsis) (UniProt Q9LKL2); test: EMSA; settings: significant reduction; residues 533-575
T3 sequence (looked up): T2 sequence (looked up) with K19A, K27A

[4] = molecular target: T4, TOC1-CCT R554A (Arabidopsis) (UniProt Q9LKL2); test: EMSA; settings: no significant change; residues 533-575
T4 sequence (looked up): T2 sequence (looked up) with A20K, R22A

[5] = molecular target: T5, TOC1-CCT-9m K551A,K552A,R554A,R558A,K559A,R560A,A562D,R564A,R565A (Arabidopsis) (UniProt Q9LKL2); test: EMSA; settings: lost almost all binding; residues 533-575
T5 sequence (looked up): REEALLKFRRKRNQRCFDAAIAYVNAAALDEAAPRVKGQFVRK

[6] = system: GST; test: EMSA
[7] = molecular target: T6, TOC1-CCT R558A (Arabidopsis) (UniProt Q9LKL2); test: EMSA; settings: no significant change; residues 533-575
T6 sequence (looked up): T2 sequence (looked up) with A20K, R26A

[8] = molecular target: T7, TOC1-CCT K559A (Arabidopsis) (UniProt Q9LKL2); test: EMSA; settings: no significant change; residues 533-575
T7 sequence (looked up): T2 sequence (looked up) with A20K, K27A

[9] = molecular target: T8, TOC1-CCT-6c R554A,R558A,R560A,R564A,R565A (Arabidopsis) (UniProt Q9LKL2); test: EMSA; settings: significant reduction; residues 533-575
T8 sequence (looked up): T5 sequence (looked up) with A19K, A20K, A27K, D30A

[10] = molecular target: T9, TOC1-CCT R564A (Arabidopsis) (UniProt Q9LKL2); test: EMSA; settings: no significant change; residues 533-575
T9 sequence (looked up): T2 sequence (looked up) with A20K, R32A

[11] = molecular target: T10, TOC1-CCT R560A (Arabidopsis) (UniProt Q9LKL2); test: EMSA; settings: mildly impaired; residues 533-575
T10 sequence (looked up): T2 sequence (looked up) with A20K, R28A

[12] = molecular target: T11, TOC1-CCT K551A (Arabidopsis) (UniProt Q9LKL2); test: EMSA; settings: no significant change; residues 533-575
T11 sequence (looked up): T2 sequence (looked up) with K19A, A20K

[13] = molecular target: T12, TOC1-CCT R565A (Arabidopsis) (UniProt Q9LKL2); test: EMSA; settings: no significant change; residues 533-575
T12 sequence (looked up): T2 sequence (looked up) with A20K, R33A

[14] = molecular target: CO-CCT (Arabidopsis) (UniProt Q39057); test: EMSA; settings: residues 306-348
[15] = molecular target: T13, TOC1-CCT A562D (Arabidopsis) (UniProt Q9LKL2); test: EMSA; settings: mildly impaired; residues 533-575
T13 sequence (looked up): T2 sequence (looked up) with A20K, A30D

[16] = system: LUX-GST; test: EMSA
[17] = molecular target: CCTC (Arabidopsis) (UniProt Q9LKL2); test: NMR; settings: 5 mM Mg2+, weak shift perturbation only, as for SUMO control; residues 567-590
[18] = molecular target: CCT550-565 (Arabidopsis) (UniProt Q9LKL2); test: NMR; settings: 5 mM Mg2+, lesser broadening, intermolecular NOEs; residues 550-565
[19] = molecular target: CCT533-547 (Arabidopsis) (UniProt Q9LKL2); test: NMR; settings: 5 mM Mg2+, lesser broadening; residues 533-547

Row | Sequence | binding result [1] | binding result [2] | binding result [3] | binding result [4] | binding result [5] | binding result [6] | binding result [7] | binding result [8] | binding result [9] | binding result [10] | binding result [11] | binding result [12] | binding result [13] | binding result [14] | binding result [15] | binding result [16] | binding result [17] | binding result [18] | binding result [19]
1 | AAAUAAAUGGAGGGGAAAAAUAAAU [G-rich RNA probe] | binds more weakly | binds more weakly | binds more weakly | binds | binds more weakly | no binding | binds | binds | binds more weakly | binds | binds more weakly | binds | binds | binds more weakly | binds more weakly | no binding | – | – | –
2 | UGGAGGGGA [NMR RNA] | – | – | – | – | – | – | – | – | – | – | – | – | – | – | – | – | binds more weakly | binds more weakly | binds more weakly

Substitutions are numbered along the chain they refer to. For some of these results: A weaker result is weaker than the reference pair of the same experiment. For some of these results: Where a protein sequence is shown, tags need not be part of it. For some of these results: Construct, isoform or probe ends are uncertain for at least one entry. For some of these results: A negative result means that nothing was seen under these conditions. For some of these results: At least one verdict rests on a figure or table, not on a statement of the authors.
